From patent US20240218023A1 (MICROBIO (SHANGHAI) CO., LTD., priority 2021, published 2024) come the findings set out here.

The data set in a line: general procedure: Fmoc solid-phase peptide synthesis; CTC resin. As to conditions: for conjugation yield / final HPLC purity: conjugation step; for final HPLC purity: 214 nm.

Some peptides are written in HELM: one residue between dots, names in brackets for other building blocks, links after the first $.

“Benzyl (6-(3-((2S,5S,11S,17S)-5,11,17-tris(4-((tert-butoxycarbonyl)amino)butyl)-3,6,9,12,15,18-hexaoxo-1,4,7,10,13,16-hexaazacyclooctadecan-2-yl)propanamido)hexyl)carbamate” had a cyclisation yield (cyclisation step) of 62.7%.
In the case of “Benzyl (6-(3-((2S,5S,11S,17S)-5,11,17-tris(4-aminobutyl)-3,6,9,12,15,18-hexaoxo-1,4,7,10,13,16-hexaazacyclooctadecan-2-yl)propanamido)hexyl)carbamate”, for the setting “late stage modification step”, the step yield is 98.8%.
“PEPTIDE1{K.E.K.G.K.G}|CHEM1{[Gal3acyl]}|CHEM2{[Gal3acyl]}|CHEM3{[Gal3acyl]}|CHEM4{[HDA5FAM]}$PEPTIDE1,PEPTIDE1,1:R1-6:R2|PEPTIDE1,CHEM1,1:R3-1:R2|PEPTIDE1,CHEM2,3:R3-1:R2|PEPTIDE1,CHEM3,5:R3-1:R2|PEPTIDE1,CHEM4,2:R3-1:R1$$$V2.0”: the conjugation yield is 38% and the “final HPLC purity” value is given as 97.57%.
For “PEPTIDE1{[dK].[dE].[dK].G.[dK].G}|CHEM1{[Gal3acyl]}|CHEM2{[Gal3acyl]}|CHEM3{[Gal3acyl]}|CHEM4{[HDA5FAM]}$PEPTIDE1,PEPTIDE1,1:R1-6:R2|PEPTIDE1,CHEM1,1:R3-1:R2|PEPTIDE1,CHEM2,3:R3-1:R2|PEPTIDE1,CHEM3,5:R3-1:R2|PEPTIDE1,CHEM4,2:R3-1:R1$$$V2.0”, the conjugation yield was determined as 54% and the “final HPLC purity” value came out at 98.15%.
